Measurements: article PMC7819943, “Rice protein-binding microarrays: a tool to detect cis-acting elements near promoter regions in rice”
The other results are listed elsewhere or left out.

The chains behind the UniProt entries cited, without tags or fusion partners.
UniProt Q0JBA9, entry or part of it: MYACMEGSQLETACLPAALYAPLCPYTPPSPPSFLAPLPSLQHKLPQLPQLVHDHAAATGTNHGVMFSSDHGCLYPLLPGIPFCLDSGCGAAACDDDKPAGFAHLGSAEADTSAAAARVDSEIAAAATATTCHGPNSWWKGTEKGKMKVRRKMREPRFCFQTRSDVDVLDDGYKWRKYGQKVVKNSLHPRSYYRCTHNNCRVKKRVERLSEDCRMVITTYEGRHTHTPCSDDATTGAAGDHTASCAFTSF

Target: OsWRKY34 (Oryza sativa, UniProt Q0JBA9 1-250)
Test: protein-binding microarray (RPBM); PBS, 2% BSA, 51.3 ng/ul salmon testes DNA, 50 uM zinc acetate, 200 nM TF, 25 C, 1 h; high values mean tight binding
Details: protein: recombinant; tags: N-terminal polyhistidine and DsRed monomer fusion (pET32a); label: CyDye5-dUTP incorporated in the synthesized complementary strand; 3' TTTTT single-stranded linker to array surface; dsDNA, one strand shown
How it was run: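 The binding signal is fluorescence intensity per feature, in arbitrary units, read on an Axon 4000B scanner. Polyhistidine- and DsRed-tagged transcription factors (N-terminal fusions) from E. coli BL21-CodonPlus were purified on Ni–NTA and applied at 200 nM for 1 h at 25 °C to a double-stranded, BSA-blocked custom Agilent array in buffer with 50 µM zinc acetate.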

Row | Sequence | binding signal
1 | TTTTTGTTTCTTTTTTCCTTGACCCCTGGCAACGGCTTTCCGGAGTCACCTAGTGCAG | 12300 fluorescence intensity (a.u.)
2 | CTGGGTGGGGAATTGGTTTAGTGAAGGATTAGTTGCTGATCGGAGTCACCTAGTGCAG | 9770 fluorescence intensity (a.u.)
3 | AACGTGTCGTGTCGCCCATCACCTTTGCCCGACGATATCGCGGAGTCACCTAGTGCAG | 9610 fluorescence intensity (a.u.)
4 | CCCTGGCGGTCACTCTTCTCCATTTCCGCCGCCGTCGTCGCGGAGTCACCTAGTGCAG | 10700 fluorescence intensity (a.u.)
5 | ACCCCGTACTCGTCGTAATACTTTTTTTAATCTCTTCTCGCGGAGTCACCTAGTGCAG | 10700 fluorescence intensity (a.u.)
6 | GCAAATATATTCCATTTACATAGCTACATTGTTCCTTCTCCGGAGTCACCTAGTGCAG | 9600 fluorescence intensity (a.u.)
7 | TGCAGTTTCTTTCATAATCTTCAATTCTTCTAAACAGTCTCGGAGTCACCTAGTGCAG | 11100 fluorescence intensity (a.u.)
8 | CTACGCTATCCCCGTATAAAATTTGCGTCACTCCACCATCCGGAGTCACCTAGTGCAG | 8230 fluorescence intensity (a.u.)
9 | TTGCGACGTTTGACCACTCGTCTTATTTAAATTTTTTTTACGGAGTCACCTAGTGCAG | 11900 fluorescence intensity (a.u.)
10 | ACTTTTGCAAAATCAATTTTCTAAAAAGTTTGACCAAATTCGGAGTCACCTAGTGCAG | 8370 fluorescence intensity (a.u.)
11 | CTCGCGCACCGCATGCTAAAGCTACCACCAGGCACGTACACGGAGTCACCTAGTGCAG | 14000 fluorescence intensity (a.u.)
12 | CCAATCCAAACCATTCTGCTGTTCTCTTCCCGTCGCCATGCGGAGTCACCTAGTGCAG | 8500 fluorescence intensity (a.u.)
13 | CAGAGTGCAAGCCAATCATCGCCACCACGCTACGCTACACCGGAGTCACCTAGTGCAG | 8130 fluorescence intensity (a.u.)
14 | ATTAGCCTCTGTTGCTTGCTTAGCTATGGTCTCGCTCATACGGAGTCACCTAGTGCAG | 10300 fluorescence intensity (a.u.)
15 | TTACCTAACTTTAGTCATCCATCTTATTTAAAATTTTTTTCGGAGTCACCTAGTGCAG | 8080 fluorescence intensity (a.u.)
16 | GAGGCTTCAACTGCTCCATTCTAATTGGGCCGGAGTGTGACGGAGTCACCTAGTGCAG | 9590 fluorescence intensity (a.u.)
17 | TATATATACACACACACACAAACACACACACACACACACACGGAGTCACCTAGTGCAG | 8720 fluorescence intensity (a.u.)
18 | CCCACAACACAAGTGTTCCCACTACCACTAACATACACTCCGGAGTCACCTAGTGCAG | 8800 fluorescence intensity (a.u.)
19 | CGTTTGCTCTATGCCTCTATTTTTTTTTATTTGGAACTCTCGGAGTCACCTAGTGCAG | 10700 fluorescence intensity (a.u.)
20 | GCATTTCCTACCACATTCTGAATCCGTCTTCTTTTAAAATCGGAGTCACCTAGTGCAG | 12300 fluorescence intensity (a.u.)
21 | AGCATTCCATCAGATATTGTTAGTTTGCCCCATTTGTCACCGGAGTCACCTAGTGCAG | 8400 fluorescence intensity (a.u.)

Given field by field: part of the list above
CTCGCGCACCGCATGCTAAAGCTACCACCAGGCACGTACACGGAGTCACCTAGTGCAG
  binding signal: 14000 fluorescence intensity (a.u.)
AGCATTCCATCAGATATTGTTAGTTTGCCCCATTTGTCACCGGAGTCACCTAGTGCAG
  binding signal: 8400 fluorescence intensity (a.u.)

Remaining list, next part.

Row | Sequence | binding signal
22 | GCCCATTAACCTACTGCCCGGCCTAATATGAATCGGAAGGCGGAGTCACCTAGTGCAG | 8120 fluorescence intensity (a.u.)
23 | TGCAACCACCACCACCACGTCCCAAACTCGCACGTTTCTCCGGAGTCACCTAGTGCAG | 9390 fluorescence intensity (a.u.)
24 | CAGTCTAAGGCATGCCCGTTCCGACCGACCCATATCCACGCGGAGTCACCTAGTGCAG | 8270 fluorescence intensity (a.u.)
25 | CCGCGTTCCCACCCCGCGCGTCGCGATCCCACCTATGCGACGGAGTCACCTAGTGCAG | 8470 fluorescence intensity (a.u.)
26 | GTCGTCTCTCGCATTTTTCCTTTGCTCCTCTGGTTGGAAGCGGAGTCACCTAGTGCAG | 10600 fluorescence intensity (a.u.)
27 | TCAATGCAACAGCTAGTACTACTCTTACTCCCAATGAAAACGGAGTCACCTAGTGCAG | 8240 fluorescence intensity (a.u.)
28 | CCGGGGATGATTCCGCCGAGTGTGTTATTGATTGTATGATCGGAGTCACCTAGTGCAG | 8640 fluorescence intensity (a.u.)
29 | GGGGAGATGGTTTGGTGAGGAGTTGTGTGTTGCTGCAGCTCGGAGTCACCTAGTGCAG | 8440 fluorescence intensity (a.u.)
30 | AGCACCATATATACATCACCACCCTGCTCTGATCAAGCATCGGAGTCACCTAGTGCAG | 8050 fluorescence intensity (a.u.)
31 | CAACGCATTTTTTTCTGTTTACCGGCAAGCTGAAGCTTTTCGGAGTCACCTAGTGCAG | 8250 fluorescence intensity (a.u.)
32 | GCTTGTTCTTCCCGGCCATCTTCTCTTCCCCATCTTCCGGCGGAGTCACCTAGTGCAG | 10700 fluorescence intensity (a.u.)
33 | CGCTACAGTACCTTCTTCCTGCTCCAGCCGAGCCTGAACACGGAGTCACCTAGTGCAG | 8410 fluorescence intensity (a.u.)
34 | TGGTGGTGGTGGGGAGAGAGAGAGAGAGAACTTAACGATGCGGAGTCACCTAGTGCAG | 9080 fluorescence intensity (a.u.)
35 | CCTCAAAAGTACCAGCCGCCTCATCTTTCCGCTTATGTTTCGGAGTCACCTAGTGCAG | 11000 fluorescence intensity (a.u.)
36 | GGTGACTGCTTCCACTTTTAGCTATTTCCTGTTCACGGTTCGGAGTCACCTAGTGCAG | 15600 fluorescence intensity (a.u.)
37 | TATCTCATTTAGGTTTGGATAGGTGTTTGACTACTAATTCCGGAGTCACCTAGTGCAG | 9520 fluorescence intensity (a.u.)
38 | ATTCCACATTTTTTAGTCGCTTTAACTCCACTGAATATTTCGGAGTCACCTAGTGCAG | 8890 fluorescence intensity (a.u.)
39 | CTGACCTATTAGTATCAGCCCATATATTTTGCACAAATCCCGGAGTCACCTAGTGCAG | 8050 fluorescence intensity (a.u.)
40 | CGGCCCATAAACATCCCATCGGCCATCTCTGCAACGCCTCCGGAGTCACCTAGTGCAG | 8490 fluorescence intensity (a.u.)
41 | GCCCATTAATTTCTCGTCGTCTCCCTTTTCTCAAACAGTACGGAGTCACCTAGTGCAG | 8120 fluorescence intensity (a.u.)
42 | GATAACTCCAGGAGAATTTACTGAGATGGCCTGGGAGGGGCGGAGTCACCTAGTGCAG | 9560 fluorescence intensity (a.u.)
